Laboratory results published in doi:10.1101/2023.09.04.556207.
No constants are given. Whether binding was seen depends on the method and setting. Binding seen in cells or lysates may run through a third protein. Tags and fused reporters may be left off the sequences shown.

Chains of the proteins cited; added tags and fusions are not shown. Residues count along the entry.
UniProt P10809, residues 27-573: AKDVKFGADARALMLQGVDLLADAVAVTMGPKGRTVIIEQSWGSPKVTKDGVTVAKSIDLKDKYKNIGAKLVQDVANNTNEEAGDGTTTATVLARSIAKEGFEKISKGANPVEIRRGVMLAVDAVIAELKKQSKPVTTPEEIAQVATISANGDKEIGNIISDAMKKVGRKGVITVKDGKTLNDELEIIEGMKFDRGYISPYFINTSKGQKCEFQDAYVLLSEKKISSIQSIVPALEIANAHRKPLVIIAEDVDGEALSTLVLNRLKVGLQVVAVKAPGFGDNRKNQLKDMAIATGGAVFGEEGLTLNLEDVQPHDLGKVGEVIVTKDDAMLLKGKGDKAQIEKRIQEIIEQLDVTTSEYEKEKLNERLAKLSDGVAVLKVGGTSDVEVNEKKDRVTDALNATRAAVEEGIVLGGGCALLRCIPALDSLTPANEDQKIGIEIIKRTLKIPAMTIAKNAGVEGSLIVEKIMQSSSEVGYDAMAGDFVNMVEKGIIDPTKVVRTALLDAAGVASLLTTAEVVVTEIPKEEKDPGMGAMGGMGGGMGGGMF

Target: T1, SLP2-MYC (human) (UniProt Q9UJZ1)
T1 sequence: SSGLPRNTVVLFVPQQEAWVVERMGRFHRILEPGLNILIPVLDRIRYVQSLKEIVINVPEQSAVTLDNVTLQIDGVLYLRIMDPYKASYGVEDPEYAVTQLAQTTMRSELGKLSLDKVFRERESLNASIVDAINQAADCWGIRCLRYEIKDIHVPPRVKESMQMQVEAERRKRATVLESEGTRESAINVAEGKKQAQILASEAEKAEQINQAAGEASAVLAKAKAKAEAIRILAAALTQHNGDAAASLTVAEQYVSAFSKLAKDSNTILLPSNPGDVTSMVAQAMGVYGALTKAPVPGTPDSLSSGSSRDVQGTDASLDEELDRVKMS
Test: co-IP

binding: no binding
Substance: HSP60 (from UniProt P10809 27-573)
